Cleaved PARP after 72 h of treatment

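Human melanoma cell lines in 1,536-well plates were treated with two drugs together for 72 h, then fixed, stained and imaged. Values are the share of nuclei positive for cleaved PARP as a percentage of the same share in the DMSO control: 100 is the control level, higher means more apoptosis. Concentrations were fixed for each drug; these are the higher of two levels. These are primary screening values without error estimates. Basal and induced levels differ widely between cell lines.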 This is part of the screen, not chosen by result. An entry leaves out what has no value listed here.

Compounds and concentrations:
LFM-A13, 10 µM: C/C(O)=C(\C#N)C(=O)Nc1cc(Br)ccc1Br
A-769662, 10 µM: N#Cc1c(O)c2c(-c3ccc(-c4ccccc4O)cc3)csc2[nH]c1=O
sunitinib, 2 µM: CCN(CC)CCNC(=O)c1c(C)[nH]c(/C=C2\C(=O)Nc3ccc(F)cc32)c1C
SNS-032, 0.05 µM: CC(C)(C)c1cnc(CSc2cnc(NC(=O)C3CCNCC3)s2)o1
T0901317, 7 µM: O=S(=O)(c1ccccc1)N(CC(F)(F)F)c1ccc(C(O)(C(F)(F)F)C(F)(F)F)cc1

Results for sunitinib and T0901317 are WM451Lu: 229; A101D: 108; SK-MEL-5: 60.9; WM3619: 244; SK-MEL-30: 92.5; C32: 109; MEL-HO: 341; MeWo: 169; UACC-257: 64.2; LOX IMVI: 207; COLO 800: 109; G-361: 64.6; WM115: 69.5; RPMI-7951: 155; WM1716: 88.0; UACC-62: 231; A2058: 213; SK-MEL-2: 98.9; MZ2-MEL: 104; COLO 792: 157; 501mel: 271; A375: 92.2; SK-MEL-28: 47.1; WM3526: 162; IPC-298: 156; IST-MEL1: 166; COLO 829: 42.6; LB2518-MEL: 145; RVH-421: 76.2.
Results for T0901317 and LFM-A13 are WM451Lu: 66.8; A101D: 194; SK-MEL-5: 202; WM3619: 87.7; SK-MEL-30: 96.9; C32: 85.6; MEL-HO: 103; MeWo: 53.9; UACC-257: 30.4; LOX IMVI: 82.3; COLO 800: 137; G-361: 251; WM115: 55.1; RPMI-7951: 153; WM1716: 89.5; UACC-62: 112; A2058: 89.0; SK-MEL-2: 91.5; MZ2-MEL: 74.3; COLO 792: 16.4; 501mel: 73.9; A375: 31.5; SK-MEL-28: 332; WM3526: 71.7; IPC-298: 188; IST-MEL1: 251; WM1745: 94.3; COLO 829: 110; LB2518-MEL: 57.0; RVH-421: 50.1.
Results for SNS-032 and sunitinib are WM451Lu: 556; A101D: 116; SK-MEL-5: 721; WM3619: 124; SK-MEL-30: 412; C32: 476; MEL-HO: 81.0; MeWo: 357; UACC-257: 123; LOX IMVI: 69.3; COLO 800: 464; G-361: 165; WM115: 612; RPMI-7951: 1010; WM1716: 163; UACC-62: 70.0; A2058: 332; SK-MEL-2: 689; MZ2-MEL: 629; COLO 792: 311; SK-MEL-28: 158; WM3526: 843; IPC-298: 176; IST-MEL1: 37.8; WM1745: 243; COLO 829: 135; LB2518-MEL: 664; RVH-421: 79.0.
Results for LFM-A13 and A-769662 are WM451Lu: 40.8; A101D: 208; SK-MEL-5: 186; WM3619: 87.4; SK-MEL-30: 72.1; C32: 79.1; MEL-HO: 96.4; MeWo: 81.7; UACC-257: 25.2; LOX IMVI: 37.3; COLO 800: 55.1; G-361: 71.6; WM115: 100; RPMI-7951: 164; WM1716: 63.5; UACC-62: 177; A2058: 87.8; SK-MEL-2: 122; MZ2-MEL: 61.0; COLO 792: 55.6; 501mel: 140; A375: 142; SK-MEL-28: 189; WM3526: 88.5; IPC-298: 60.3; IST-MEL1: 31.2; WM1745: 119; COLO 829: 143; LB2518-MEL: 66.0; RVH-421: 47.0.
Results for LFM-A13 and sunitinib are WM451Lu: 478; A101D: 235; SK-MEL-5: 222; WM3619: 119; SK-MEL-30: 173; C32: 99.4; MEL-HO: 141; MeWo: 137; UACC-257: 31.6; LOX IMVI: 65.2; COLO 800: 115; G-361: 113; WM115: 184; RPMI-7951: 87.2; WM1716: 87.7; UACC-62: 174; A2058: 363; SK-MEL-2: 130; MZ2-MEL: 103; COLO 792: 106; 501mel: 89.2; A375: 218; SK-MEL-28: 99.6; WM3526: 332; IPC-298: 138; IST-MEL1: 127; COLO 829: 120; LB2518-MEL: 82.0; RVH-421: 53.6.
Results for T0901317 and A-769662 are WM451Lu: 111; A101D: 68.8; SK-MEL-5: 147; WM3619: 102; SK-MEL-30: 42.2; C32: 95.9; MEL-HO: 51.2; MeWo: 88.1; UACC-257: 22.4; LOX IMVI: 94.7; COLO 800: 116; G-361: 35.2; WM115: 48.1; RPMI-7951: 84.7; WM1716: 62.8; UACC-62: 28.8; A2058: 148; COLO 792: 121; A375: 130; SK-MEL-28: 126; WM3526: 108; IPC-298: 49.2; IST-MEL1: 96.9; WM1745: 385; COLO 829: 101; RVH-421: 66.5.
Results for A-769662 and SNS-032 are WM451Lu: 192; A101D: 113; SK-MEL-5: 171; WM3619: 122; SK-MEL-30: 50.3; C32: 93.0; MEL-HO: 119; MeWo: 68.4; UACC-257: 38.4; LOX IMVI: 65.7; COLO 800: 106; G-361: 104; WM115: 91.3; RPMI-7951: 231; WM1716: 57.7; UACC-62: 219; A2058: 98.0; SK-MEL-2: 168; MZ2-MEL: 112; COLO 792: 39.4; 501mel: 29.5; A375: 116; SK-MEL-28: 99.9; WM3526: 80.5; IPC-298: 36.0; IST-MEL1: 30.3; WM1745: 198; COLO 829: 56.1; LB2518-MEL: 81.2; RVH-421: 213.

Data from the primary screen of doi:10.1371/journal.pone.0140310, rounded.